Assay results as given in US8664235B2, “6-Halogeno-[1,2,4]triazolo[1,5-a]pyrimidines for combating animal pests” (Merial Limited, priority 2003, dated 2014).
Some results were stated once for a whole list of compounds, not compound by compound.

Experiments:
Type in all cases: in vivo
[1] = system: Twospotted Spider Mite (Tetranychus urticae); experiment: Twospotted spider mite test, lima bean foliage dipped; conditions: 300 ppm, lima bean plants, after 5 days
Experimental: (§1) Surfactant (Alkamuls EL 620) was added at the rate of 0.1% (vol/vol).
(§2) After the experiments were completed, in each case the lowest concentration was determined at which the compound still caused an 75 to 100% inhibition or mortality in comparison with untreated controls (limit or minimal concentration).
Lima bean plants in the 1st leaf-pair stage (variety ‘Henderson’) are infested with approximately 100 laboratory-reared mites per leaf by placing infested leaf sections on top of the test plants. The leaf sections are removed after 24 hr. The foliage of the intact plants is dipped into gradient solutions of the test compound. Mite mortality is determined after 5 days.

[2] = system: Green Peach Aphid (Myzus persicae); experiment: Green peach aphid test, pepper leaves dipped; conditions: 300 ppm, pepper plants, after 5 days
Experimental: as §1, §2
(§3) Pepper plants in the 2nd leaf-pair stage (variety ‘California Wonder’) are infested with approximately 40 laboratory-reared aphids by placing infested leaf sections on top of the test plants. The leaf sections are removed after 24 hr. The leaves of the intact plants are dipped into gradient solutions of the test compound. Aphid mortality on the treated plants, relative to mortality on check plants, is determined after 5 days.

[3] = system: Southern Armyworm (Spodoptera eridania), 2nd Instar Larvae; experiment: Southern armyworm test, lima bean foliage dipped; conditions: 300 ppm, Sieva lima bean foliage dipped, at 5 days
[4] = system: Cotton Aphid (Aphis gossypii); experiment: Cotton aphid test, cotyledons dipped in test solution; conditions: 300 ppm, cotton plants, after 5 days
Experimental: as §1, §2
as §3, with “Cotton” for “Pepper”, “cotyledon” for “2nd leaf-pair”, “‘Delta Pine’)” for “‘California Wonder’)”, “100” for “40”, “cotyledons” for “leaves”

[5] = system: Bean Aphid (Aphis fabae); experiment: Bean aphid test, nasturtium foliage and stem dipped; conditions: 300 ppm, nasturtium plants, after 3 days
Experimental: as §1, §2
Nasturtium plants in the 1st leaf-pair stage (variety ‘Mixed Jewel’) are infested with approximately 25 laboratory-reared aphids by placing infested cut plants on top of the test plants. The cut plants are removed after 24 hr. The foliage and stem of the test plants are dipped into gradient solutions of the test compound. Aphid mortality is determined after 3 days.

Structure (SMILES) | mortality in comparison with untreated controls [1] | mortality in comparison with untreated controls [2] | mortality in comparison with untreated controls [3] | mortality in comparison with untreated controls [4] | mortality in comparison with untreated controls [5]
Cc1nc2ncnn2c(NC(C)c2ccc(Br)cc2)c1Cl (stereo not drawn) [Example 119] | over 75% | 100% | over 75% | over 75% | 
CCc1nc2ncnn2c(N[C@@H](C)c2ccc(Cl)cc2)c1Cl [Example 163] |  | 100% | over 75% | over 75% | over 75%
CCc1nc2ncnn2c(N[C@@H](C)c2ccc(F)cc2)c1Cl [Example 161] |  | 100% | over 75% | over 75% | over 75%
